The values below come from paper doi:10.1101/2021.10.04.463067.

By UniProt entry, the sequences of proteins in these tests, tags left out. Where a name states a change or a piece, a line headed by the entry shows the natural chain unless it says otherwise.
UniProt Q9UI95: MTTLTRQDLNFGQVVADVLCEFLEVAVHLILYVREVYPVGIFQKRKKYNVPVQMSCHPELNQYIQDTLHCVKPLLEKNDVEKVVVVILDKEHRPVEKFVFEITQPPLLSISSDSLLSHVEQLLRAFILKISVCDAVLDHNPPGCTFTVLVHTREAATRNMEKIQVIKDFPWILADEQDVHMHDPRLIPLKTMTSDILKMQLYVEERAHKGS

Common to all, as to assay: co-IP
Experiment [1] has as its target T1, GFP-SHLD3 (UniProt Q6ZNX1).
T1 sequence: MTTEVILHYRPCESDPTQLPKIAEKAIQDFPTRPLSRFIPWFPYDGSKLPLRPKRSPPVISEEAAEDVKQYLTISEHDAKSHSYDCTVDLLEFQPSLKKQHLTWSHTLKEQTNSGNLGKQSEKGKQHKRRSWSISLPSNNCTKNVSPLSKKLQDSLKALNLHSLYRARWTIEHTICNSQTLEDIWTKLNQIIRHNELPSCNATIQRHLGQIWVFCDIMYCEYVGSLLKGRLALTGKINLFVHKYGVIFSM

For experiment [2], the target named is T2, GFP-CHAMP1 wild-type (CHAMP1-Full Length) (UniProt Q96JM3).
T2 sequence: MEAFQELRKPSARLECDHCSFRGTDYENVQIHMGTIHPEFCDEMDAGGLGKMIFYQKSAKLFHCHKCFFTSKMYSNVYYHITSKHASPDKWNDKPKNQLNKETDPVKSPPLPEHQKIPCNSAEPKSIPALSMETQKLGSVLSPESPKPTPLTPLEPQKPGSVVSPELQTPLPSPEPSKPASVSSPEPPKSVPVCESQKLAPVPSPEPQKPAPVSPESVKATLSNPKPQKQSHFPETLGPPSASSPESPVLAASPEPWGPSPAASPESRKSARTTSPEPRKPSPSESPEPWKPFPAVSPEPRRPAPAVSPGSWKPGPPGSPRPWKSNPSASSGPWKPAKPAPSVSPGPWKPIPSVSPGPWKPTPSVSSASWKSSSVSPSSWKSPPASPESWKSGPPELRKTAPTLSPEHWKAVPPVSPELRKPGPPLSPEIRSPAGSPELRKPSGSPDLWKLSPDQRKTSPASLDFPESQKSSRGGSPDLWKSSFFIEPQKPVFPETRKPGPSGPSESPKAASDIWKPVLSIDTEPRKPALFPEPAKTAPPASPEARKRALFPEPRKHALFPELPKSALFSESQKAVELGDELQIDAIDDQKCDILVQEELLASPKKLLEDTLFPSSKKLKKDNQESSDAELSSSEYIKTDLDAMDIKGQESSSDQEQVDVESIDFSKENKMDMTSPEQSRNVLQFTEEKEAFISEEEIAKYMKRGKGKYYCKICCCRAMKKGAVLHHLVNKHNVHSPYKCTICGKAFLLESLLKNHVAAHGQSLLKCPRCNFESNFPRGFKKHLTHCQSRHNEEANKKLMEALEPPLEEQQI

Experiment [3] deals with T3, GFP-CHAMP1-2A mutant (W334A/K335A) (UniProt Q96JM3).
T3 sequence: T2 sequence with W334A, K335A

For experiment [4], the target named is T2, GFP-CHAMP1 wild-type (CHAMP1-Full Length). The source holds these as a separate data set.
In experiment [5] the target is GFP-REV7 (UniProt Q9UI95).
Experiment [6] has as its target T2, GFP-CHAMP1 wild-type (CHAMP1-Full Length). This is another data set of the same source.
Experiment [7] has as its target Flag-REV7-T103A (UniProt Q9UI95).
For experiment [8], the target named is Flag-REV7 wild type (UniProt Q9UI95).
Experiment [9] has as its target endogenous REV7 (human (endogenous in U2OS and HEK293T)) (UniProt Q9UI95).

Where a chain is given by its changes, count along the chain named. Where two headings read alike, the source gives them in different places. These are yes or no findings as the source states them, for the method shown. Binding seen in cells or lysates may run through a third protein. Some entries that bind do so weakly or less than the wild type. For part of these data: Where a sequence is shown, tags or fusion partners need not be part of it.

Consider “Flag-REV7 wild type (from UniProt Q9UI95 1-211)”, for which, in [1], the binding entry is on record as “binds”.

In the case of “Flag-REV7-T103A (from UniProt Q9UI95 1-211)”, the binding result in experiment [1] is on record as “binds”.

On to “endogenous REV7 (from UniProt Q9UI95 1-211)”, for which the binding entry in [2] is “binds”; in experiment [3] it was “no binding”; in experiment [4] it was “binds”; in experiment [1], “binds”.

B1: endogenous POGZ (protein, UniProt Q7Z3K3 1-1410)
chain: MADTDLFMECEEEELEPWQKISDVIEDSVVEDYNSVDKTTTVSVSQQPVSAPVPIAAHASVAGHLSTSTTVSSSGAQNSDSTKKTLVTLIANNNAGNPLVQQGGQPLILTQNPAPGLGTMVTQPVLRPVQVMQNANHVTSSPVASQPIFITTQGFPVRNVRPVQNAMNQVGIVLNVQQGQTVRPITLVPAPGTQFVKPTVGVPQVFSQMTPVRPGSTMPVRPTTNTFTTVIPATLTIRSTVPQSQSQQTKSTPSTSTTPTATQPTSLGQLAVQSPGQSNQTTNPKLAPSFPSPPAVSIASFVTVKRPGVTGENSNEVAKLVNTLNTIPSLGQSPGPVVVSNNSSAHGSQRTSGPESSMKVTSSIPVFDLQDGGRKICPRCNAQFRVTEALRGHMCYCCPEMVEYQKKGKSLDSEPSVPSAAKPPSPEKTAPVASTPSSTPIPALSPPTKVPEPNENVGDAVQTKLIMLVDDFYYGRDGGKVAQLTNFPKVATSFRCPHCTKRLKNNIRFMNHMKHHVELDQQNGEVDGHTICQHCYRQFSTPFQLQCHLENVHSPYESTTKCKICEWAFESEPLFLQHMKDTHKPGEMPYVCQVCQYRSSLYSEVDVHFRMIHEDTRHLLCPYCLKVFKNGNAFQQHYMRHQKRNVYHCNKCRLQFLFAKDKIEHKLQHHKTFRKPKQLEGLKPGTKVTIRASRGQPRTVPVSSNDTPPSALQEAAPLTSSMDPLPVFLYPPVQRSIQKRAVRKMSVMGRQTCLECSFEIPDFPNHFPTYVHCSLCRYSTCCSRAYANHMINNHVPRKSPKYLALFKNSVSGIKLACTSCTFVTSVGDAMAKHLVFNPSHRSSSILPRGLTWIAHSRHGQTRDRVHDRNVKNMYPPPSFPTNKAATVKSAGATPAEPEELLTPLAPALPSPASTATPPPTPTHPQALALPPLATEGAECLNVDDQDEGSPVTQEPELASGGGGSGGVGKKEQLSVKKLRVVLFALCCNTEQAAEHFRNPQRRIRRWLRRFQASQGENLEGKYLSFEAEEKLAEWVLTQREQQLPVNEETLFQKATKIGRSLEGGFKISYEWAVRFMLRHHLTPHARRAVAHTLPKDVAENAGLFIDFVQRQIHNQDLPLSMIVAIDEISLFLDTEVLSSDDRKENALQTVGTGEPWCDVVLAILADGTVLPTLVFYRGQMDQPANMPDSILLEAKESGYSDDEIMELWSTRVWQKHTACQRSKGMLVMDCHRTHLSEEVLAMLSASSTLPAVVPAGCSSKIQPLDVCIKRTVKNFLHKKWKEQAREMADTACDSDVLLQLVLVWLGEVLGVIGDCPELVQRSFLVASVLPGPDGNINSPTRNADMQEELIASLEEQLKLSGEHSESSTPRPRSSPEETIEPESLHQLFEGESETESFYGFEEADLDLMEI
B1: the binding result in [5] and in [6] was “binds” in each case.

B2: endogenous CHAMP1 (protein, UniProt Q96JM3 1-812)
chain: T2 sequence
In the case of B2, the binding entry in experiment [5], in experiment [7], in [8] and in experiment [9] was “binds” throughout.
